Experimental data: patent publication US8829035B2, “Agent for treatment or prevention of diseases associated with activity of neurotrophic factors” (Sumitomo Chemical Company, Limited, priority 2009, dated 2014)
The name of at least one read-out is uncertain.

Test system: activity of 200 ng/mL of NGF (NXF promoter-driven luciferase in PC12 cells)
Assay: Luciferase reporter assay (NXF promoter) in PC12 cells: potentiation of NGF activity
Assay type: cell-based, rat
Details: Test Example 4, same manner as Test Example 1, relative luciferase activity vs 200 ng/mL NGF alone
Method: The forward primer 5′-[…]-3′ and the reverse primer 5′-[…]-3′ were prepared as the PCR primers according to the sequence information for the NXF gene genome sequence (Accession Nos. AB054577 and NC—000085), and the PCR method was used to isolate from approximately 5 kbp upstream from the translated region of the NXF gene promoter portion to the vicinity of the transcription start site. For this, 1 μg of mouse genomic DNA (Takara) was used as the template, and the 2-step PCR reaction was carried out for 35 cycles, the conditions for which were 95° C./1 m in the denaturing step, and 68° C./8 m in the annealing and extension steps, to obtain the PCR product. The NXF promoter fragment was inserted into the SmaI site of the pGL3 Basic vector (Promega) in the upstream of luciferase gene to prepare a reporter plasmid that would express the luciferase enzyme driven by the NXF promoter.
PC12 cells (available from the ATCC) were cultured using RPMI medium (GIBCO-BRL) with 5% FCS (GIBCO-BR) and 15% horse serum (GIBCO-BRL) added, and 1 mM in sodium pyruvate (GIBCO-BRL), at 37° C. in the presence of 5% CO2. After transfection in 10^6 of these PC12 cells for 2 days with 12 μg of the above-described reporter plasmid and 1 μg of pRC/RSV vector (Invitrogen) using the Lipofectamine 2000 reagent (Invitrogen), the medium was exchanged for fresh medium containing 40 mg/L of geneticin sulfate (GIBCO), and this was cultured continuously. Culturing was continued for approximately 1 month with medium exchange of the cultured medium containing 40 mg/L of geneticin sulfate (GIBCO) every several days, with the result that multiple colonies of the obtained cells were picked up. Among these, one of the colonies that induced luciferase activity in the presence of 40 ng/mL of NGF (Wako Pure Chemicals) was selected and used for the cells to evaluate the activity of the compounds below.
These cells were set up in 96-well plates with 80% confluence, and the luciferase reporter assay was conducted using the Promega Steady Glo luciferase assay kit. The procedure was carried out overnight (approx. 16 hours) using culture medium containing the compound, and the Steady Glo substrate solution was added to the cells in half-diluted in PBS after removal of all remaining medium containing the compound. After this was allowed to stand for 30 minutes, the respective quantity of light produced was measured with a luminometer (Envision Perkin Elmer).
The activity of the compounds for evaluation was measured as the potentiation of the activity of 200 ng/mL of NGF. For the experiment control wells, the negative control well had medium containing only a final concentration of 0.1% DMSO, the positive control well had medium containing a saturation concentration of NGF. In addition, a test well was set up containing 0.1% DMSO with 200 ng/mL of NGF added corresponding to a 0 compound concentration. When its luciferase activity was taken as a standard, the relative luciferase activity could be calculated for the test wells to which the compound solution (dissolved in DMSO and prepared to have a final DMSO concentration of 0.1%) had been added in addition to the 200 ng/mL of NGF, to find the potentiation of the activity of 200 ng/mL of NGF due to that compound.

SMILES	Activity (potentiation of NGF activity)
COc1cccc(-c2nc3cc(-c4nc5ccccc5o4)ccc3n2C2CCOCC2)c1 [Ex. 65, 5-(benzoxazol-2-yl)-2-(3-methoxyphenyl)-1-(tetrahydropyran-4-yl)benzimidazole]	+++ (Showed particularly strong potentiation (2-fold or greater potentiation of the activity of 200 ng/mL of NGF at 1 μM))
Cc1nc2cc(-c3nc4cc(C(F)(F)F)ccc4o3)ccc2n1C1CCOCC1 [Ex. 71, 5-(5-trifluoromethylbenzoxazol-2-yl)-2-methyl-1-(tetrahydropyran-4-yl)benzimidazole]	+++ (Showed particularly strong potentiation (2-fold or greater potentiation of the activity of 200 ng/mL of NGF at 1 μM))
COC(=O)c1ccc2oc(-c3ccc4c(c3)nc(C)n4C3CCOCC3)nc2c1 [Ex. 73, 5-(5-methoxycarbonylbenzoxazol-2-yl)-2-methyl-1-(tetrahydropyran-4-yl)benzimidazole]	+++ (Showed particularly strong potentiation (2-fold or greater potentiation of the activity of 200 ng/mL of NGF at 1 μM))
CCCCn1c(C)nc2cc(-c3nc4ccccc4o3)ccc21 [Ex. 74, 5-(benzoxazol-2-yl)-1-n-butyl-2-methylbenzimidazole]	+++ (Showed particularly strong potentiation (2-fold or greater potentiation of the activity of 200 ng/mL of NGF at 1 μM))
Cc1nc2cc(-c3nc4ccccc4o3)ccc2n1C(C)C [Ex. 80, 5-(benzoxazol-2-yl)-2-methyl-1-isopropylbenzimidazole]	+++ (Showed particularly strong potentiation (2-fold or greater potentiation of the activity of 200 ng/mL of NGF at 1 μM))
Cc1nc2cc(-c3nc4ccccc4o3)ccc2n1CC(C)(C)C [Ex. 81, 5-(benzoxazol-2-yl)-2-methyl-1-neopentylbenzimidazole]	+++ (Showed particularly strong potentiation (2-fold or greater potentiation of the activity of 200 ng/mL of NGF at 1 μM))
CCCn1c(C)nc2cc(-c3nc4cc(N)ccc4o3)ccc21 [Ex. 82, 5-(5-aminobenzoxazol-2-yl)-2-methyl-1-n-propylbenzimidazole]	+++ (Showed particularly strong potentiation (2-fold or greater potentiation of the activity of 200 ng/mL of NGF at 1 μM))
Cc1nc2cc(-c3nc4ccccc4o3)ccc2n1CCC(F)(F)F [Ex. 85, 5-(benzoxazol-2-yl)-2-methyl-1-(3,3,3-trifluoropropyl)benzimidazole]	+++ (Showed particularly strong potentiation (2-fold or greater potentiation of the activity of 200 ng/mL of NGF at 1 μM))
Cc1nc2cc(-c3nc4ccccc4o3)ccc2n1CCO [Ex. 88, 5-(benzoxazol-2-yl)-1-(2-hydroxyethyl)-2-methylbenzimidazole]	+++ (Showed particularly strong potentiation (2-fold or greater potentiation of the activity of 200 ng/mL of NGF at 1 μM))
Cc1nc2cc(-c3nc4ccccc4o3)ccc2n1CCN1CCS(=O)(=O)CC1 [Ex. 93, 5-(benzoxazol-2-yl)-2-methyl-1-(2-(thiomorpholin-1,1-dioxide-4-yl)ethyl)benzimidazole]	+++ (Showed particularly strong potentiation (2-fold or greater potentiation of the activity of 200 ng/mL of NGF at 1 μM))
Cc1nc2cc(-c3nc4ccccc4o3)ccc2n1CC1CCCO1 (stereo not drawn) [Ex. 95, 5-(benzoxazol-2-yl)-2-methyl-1-(tetrahydrofuran-2-yl)methylbenzimidazole]	+++ (Showed particularly strong potentiation (2-fold or greater potentiation of the activity of 200 ng/mL of NGF at 1 μM))
CCCn1c(C)nc2cc(-c3nc4cc(NC(C)=O)ccc4o3)ccc21 [Ex. 98, 5-(5-acetylaminobenzoxazol-2-yl)-2-methyl-1-n-propylbenzimidazole]	+++ (Showed particularly strong potentiation (2-fold or greater potentiation of the activity of 200 ng/mL of NGF at 1 μM))
CC(=O)Nc1ccc(-c2nc3cc(-c4nc5cc(Cl)ccc5o4)ccc3n2C2CCOCC2)cc1 [Ex. 100, 2-(4-acetylaminophenyl)-5-(5-chlorobenzoxazol-2-yl)-1-(tetrahydropyran-4-yl)benzimidazole]	+++ (Showed particularly strong potentiation (2-fold or greater potentiation of the activity of 200 ng/mL of NGF at 1 μM))
COC(=O)c1ccc(-c2nc3cc(-c4nc5cc(Cl)ccc5o4)ccc3n2C2CCOCC2)cc1 [Ex. 101, 5-(5-chlorobenzoxazol-2-yl)-2-(4-methoxycarbonylphenyl)-1-(tetrahydropyran-4-yl)benzimidazole]	+++ (Showed particularly strong potentiation (2-fold or greater potentiation of the activity of 200 ng/mL of NGF at 1 μM))
O=C(O)c1ccc(-c2nc3cc(-c4nc5cc(Cl)ccc5o4)ccc3n2C2CCOCC2)cc1 [Ex. 102, 2-(4-carboxylphenyl)-5-(5-chlorobenzoxazol-2-yl)-1-(tetrahydropyran-4-yl)benzimidazole]	+++ (Showed particularly strong potentiation (2-fold or greater potentiation of the activity of 200 ng/mL of NGF at 1 μM))
COC(=O)c1cccc(-c2nc3cc(-c4nc5cc(Cl)ccc5o4)ccc3n2C2CCOCC2)c1 [Ex. 103, 5-(5-chlorobenzoxazol-2-yl)-2-(3-methoxycarbonylphenyl)-1-(tetrahydropyran-4-yl)benzimidazole]	+++ (Showed particularly strong potentiation (2-fold or greater potentiation of the activity of 200 ng/mL of NGF at 1 μM))
O=C(O)c1cccc(-c2nc3cc(-c4nc5cc(Cl)ccc5o4)ccc3n2C2CCOCC2)c1 [Ex. 105, 2-(3-carboxylphenyl)-5-(5-chlorobenzoxazol-2-yl)-1-(tetrahydropyran-4-yl)benzimidazole]	+++ (Showed particularly strong potentiation (2-fold or greater potentiation of the activity of 200 ng/mL of NGF at 1 μM))
CC(=O)Nc1cccc(-c2nc3cc(-c4nc5cc(Cl)ccc5o4)ccc3n2C2CCOCC2)c1 [Ex. 106, 2-(3-acetylaminophenyl)-5-(5-chlorobenzoxazol-2-yl)-1-(tetrahydropyran-4-yl)benzimidazole]	+++ (Showed particularly strong potentiation (2-fold or greater potentiation of the activity of 200 ng/mL of NGF at 1 μM))
CNC(=S)NCCn1c(C)nc2cc(-c3nc4ccccc4o3)ccc21 [Ex. 110, 3-(2-(5-(benzoxazol-2-yl)-2-methylbenzimidazol-1-yl)ethyl)-1-methylthiourea]	+++ (Showed particularly strong potentiation (2-fold or greater potentiation of the activity of 200 ng/mL of NGF at 1 μM))
CCC(CO)n1c(C)nc2cc(-c3nc4ccccc4o3)ccc21 (stereo not drawn) [Ex. 115, 5-(1-benzoxazol-2-yl)-1-(1-butanol-2-yl)-2-methylbenzimidazole]	+++ (Showed particularly strong potentiation (2-fold or greater potentiation of the activity of 200 ng/mL of NGF at 1 μM))
Cc1nc2cc(-c3nc4ccccc4o3)ccc2n1CC(C)O (stereo not drawn) [Ex. 116, 5-(1-benzoxazol-2-yl)-1-(2-n-propanol-1-yl)-2-methylbenzimidazole]	+++ (Showed particularly strong potentiation (2-fold or greater potentiation of the activity of 200 ng/mL of NGF at 1 μM))
